Laboratory results taken from PubChem BioAssay AID1347423 (Functional Genomics Laboratory (NCATS/FGL), 2020).
Screen size: about 52,000 sequences; about 210 (0.4%) were called active.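 How the source made its calls: active means gene whose silencing raises cell survival under the drug, median off-target-corrected z-score across its silencing RNAs 2 or more; inactive means the rest.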 The list shows a part of the results.

Assay: Resistance to Poly (ADP-Ribose) Polymerase inhibitor: Gene Identification via Genome-wide siRNA Screen
Settings: mouse BRCA2 R2336H ES cells, olaparib, CellTiter-Glo viability; active compounds read high
Summary of the method: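 Genome-wide siRNA screen (3 siRNAs/gene, 20 nM) in mouse ES cells carrying hypomorphic BRCA2 R2336H; olaparib 500 nM added 48 h post-transfection, CellTiter-Glo viability 72 h later. Normalized to plate-median negative control; MAD z-scores, gene median, seed-adjusted.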

| Sequence | z-score |
| --- | --- |
| GGAGACCUUCAAGUACUUUTT against 6720485C15Rik | inactive: -2.58 |
| GGCACGCUUAGCCAAAUGUTT against Herc2 | inactive: 1.23 |
| GGAGAUUCAGAAAAAGCUGTT against Stmn2 | inactive: 0.676 |
| GGCAAAAUCAUGUGGUUGATT against Dlat | inactive: -0.444 |
| GAUCACUGGCAAGCACGAATT against Hspb1 | inactive: 1.67 |
| CCCACAGGGAUUUAUUUAUTT against Slc37a1 | active: 1.36 |
| GGUGAUAGUCGUUUUCUAGTT against Wee1 | inactive: -1.76 |
| GGAUGGAGAUGAAAUUAUCTT against Atp8a2 | inactive: -0.341 |
| CGGAGUAUUUCUAUCCACGTT against Gas6 | inactive: 0.873 |
| GGAAUCCUUUGGUUAUUCATT against Hs6st1 | inactive: 0.846 |
| GCACUGUUUGUGCAAACAATT against C130071C03Rik | inactive: 1.13 |
| GGAAGAACAGACUUGCCUGTT against Sh3bp1 | inactive: -0.88 |
| GGAAGAAAUUCAAAAACUGTT against Golga5 | inactive: -0.0228 |
| GGUGAUUGUGCACCUGUUGTT against Tex14 | inactive: -1.21 |
| GGAUUAUUUUAAGUGGAGATT against Dna2l | inactive: 0.0165 |
| GGUGGAAGAACUCUGUCAGTT against Rnf40 | inactive: -0.443 |
| CGAGGCUAACAAACUCAUATT against Guca2a | inactive: -0.522 |
| CCGAUUUGAAAAGCUAAUGTT against Fmnl1 | inactive: 0.124 |
| GGAAAACCACUACAAGUUCTT against 1010001D01Rik | inactive: 0.639 |
| CCAUCCUAGCUGUGGUAAGTT against Olfr554 | inactive: 1.54 |
| CGUUGAUUUCCAAAGCUGUTT against Kcnc2 | inactive: 0.168 |
| CGAAAACGAGAUCACCAAATT against E2f7 | inactive: 1.02 |

Single entries from above.
z-score with GGAGAUUCAGAAAAAGCUGTT against Stmn2 is entered as inactive: 0.676
z-score with GGUGAUAGUCGUUUUCUAGTT against Wee1 is entered as inactive: -1.76

2 consecutive entries already listed:

| Sequence | z-score |
| --- | --- |
| CGGAGUAUUUCUAUCCACGTT against Gas6 | inactive: 0.873 |
| GGAAUCCUUUGGUUAUUCATT against Hs6st1 | inactive: 0.846 |

(further entries)

| Sequence | z-score |
| --- | --- |
| GGCAGCUUACUAAAGAUCUTT against 1700083M11Rik | inactive: -0.901 |
| GGAUGAUGUGACAGAGACCTT against Trpv3 | inactive: 1.78 |
| GGGCACAAGAUCUCAAUUUTT against B4galt7 | inactive: -0.557 |
| GCCAUUCUCACUCCUAGUUTT against Foxj2 | inactive: -1.37 |
| CGUGUAACACACGAUUAGATT against Ttid | inactive: 0.186 |
| GCUCAAAACAAUCCACGCCTT against 1700006J14Rik | inactive: 2.75 |
| GGUGUUUCUGUUCUGAUUCTT against Olfr703 | inactive: -0.205 |
| GGACUUCUUCAGAAACAGCTT against Gtf2a1lf | inactive: 0.0816 |
| GGAAUUUUCCAACAUGGACTT against 4933406E20Rik | inactive: -0.735 |
| GCUAGCAUAGUCAAAAACUTT against Ptges | inactive: 1.47 |
| GGCCAUCGAAAAGAAUGUGTT against Prkar1a | inactive: 1.58 |
| GACCUUCCAGGUCAAGUUGTT against Plcg1 | inactive: 0.621 |
| CCCUCCAGAAAAACAGUUUTT against Sssca1 | inactive: -0.229 |
| GGCCAUCGAACUCAAUCUCTT against 2810002D13Rik | inactive: 0.717 |
| GGUUAAUUCCUUCAUUGCCTT against Gpr1 | inactive: -0.744 |
| GGCCUAUGCGAAAAUCUGUTT against Camk2b | inactive: -0.286 |
| GCAAUCAUUUUAGCAUGUGTT against Tas2r129 | inactive: 0.636 |
| CCAUCAAAACUUACCUCACTT against AA408556 | inactive: -2.4 |
| GCCAGUUUGUGUGCAAAAATT against Lrp1 | inactive: 1.06 |
| GCGAUGUUAAUUCCUAUUATT against Nhlrc1 | inactive: -0.324 |
| GCGGACACUAAUGAACCUGTT against Tagln2 | inactive: -0.395 |
| GGAAAUAAUAUUCCUGGGATT against 4632409L19Rik | inactive: 0.905 |

| Sequence | z-score |
| --- | --- |
| GGACUUCAUGAAGAACCUATT against Myo1g | inactive: 0.718 |
| GCCAUUACUUAACUCAUAATT against 4930432O21Rik | inactive: -1.11 |
| GGAUCACCCAUCAAAUAUATT against Oxct1 | inactive: 0.234 |
| CCGGCUUCUGGUACUAUACTT against BC025458 | inactive: -0.0289 |
| GGAUGGGCAAAAAGUUGACTT against Timm13a | inactive: 0.634 |
| GGUCACUGACAGGUACCAUTT against E130018O15Rik | inactive: -0.0366 |
| CCCUAAAUUAGCACAGUUUTT against 0610012H03Rik | inactive: -1.97 |
| CCAGAAGAACAAGGAAGUATT against MGC129481 | inactive: -0.589 |
| GGUGUACUCUGUUCCCAUGTT against Psmb6 | inactive: -2.12 |
| GGUGUGUUACAACCAUUUGTT against Hsd17b9 | inactive: -0.913 |
| GGAAACUGUAGAGAACAUUTT against Csnd | inactive: -2.68 |
| GCAUACAUAGCACUACAUATT against Olfr536 | inactive: -0.0396 |
| GCCCUUUGAAGCCUUUGAGTT against Chchd5 | inactive: -0.579 |
| GGCAUCUUGGCACUCUACUTT against 1810059G22Rik | inactive: -2.69 |
| GGACUAUUCUGAGAAUCCCTT against Olfr821 | inactive: 0.68 |
| CCGCAUAUUUGGAAUACGATT against 1200003O06Rik | inactive: 0.862 |
| GGGUCAGUGAAAAGAUCAGTT against Olfr433 | inactive: 1.79 |
| GGACAGGAGCUGUUUGACCTT against Epb4.1l5 | inactive: -0.236 |
| GCCACCAUUCGGAAAUUUGTT against 5730427C23Rik | inactive: 0.263 |
| CCUAUGUGAAAAAAACUGCTT against Olfr1026 | inactive: 0.345 |
| GGAUGAGCUGAGGAAAUCCTT against Psd2 | inactive: 0.976 |
| CGAUAUUGGUGGAUUCUUUTT against Cntnap1 | inactive: -0.473 |
